We go through 78 molecules from the supplement of paper PMC8732350.

Several values for one entry are separate records, joined by “and”; a condition that tells them apart may be missing. Equal values may be shown once. Where a name gives a salt, the structure may show the parent alone. ± gives the standard deviation of the averaged measurements. This is one part of the list. This data set is noisy: repeats of one test often differ as much as different tests do.

This test concerns A549. The test can be described thus: surface PD-L1 immunofluorescence intensity relative to IFN-gamma-only control (ratio); higher = more PD-L1 expression. The settings on record: 10 µM; exposure time 24 h; IFN-gamma 100 ng/mL.
As for `Nc1nc2c(ncn2[C@@H]2O[C@H](CO)[C@@H](O)[C@H]2O)c(=O)[nH]1` [Guanosine], the “surface PD-L1 immunofluorescence intensity” value was 1.08. The result for `NCCNCCNCCNCCN` [Tetraethylenepentamine pentahydrochloride] reads 0.945; that for `CC1(C)S[C@@H]2[C@H](NC(=O)[C@H](NC(=O)N3CCNC3=O)c3ccccc3)C(=O)N2[C@H]1C(=O)O` [Azlocillin sodium salt], 1.03 ± 0.011.

With `COc1ccc(C(Cl)=C(c2ccc(OC)cc2)c2ccc(OC)cc2)cc1` [Chlorotrianisene], the “surface PD-L1 immunofluorescence intensity” value was 0.938.

With `Cc1oncc1C(=O)Nc1ccc(C(F)(F)F)cc1` [Leflunomide], the “surface PD-L1 immunofluorescence intensity” value was determined as 1 ± 0.012. The result for `O=c1[nH]c2cc(C(F)(F)F)c(N3CCOCC3)cc2n(CP(=O)(O)O)c1=O` reads 0.939; that for `O=C(O)c1cccnc1Nc1cccc(C(F)(F)F)c1` [Niflumic acid], 0.9 ± 0.02. Consider `CCOC(=O)[C@H](CCc1ccccc1)N[C@@H](C)C(=O)N1Cc2ccccc2C[C@H]1C(=O)O` [Quinapril HCl], for which the “surface PD-L1 immunofluorescence intensity” value is 1.02. The result for `Cn1cc(-c2ccc3ncc(Cc4ccc5ncccc5c4)n3n2)cn1` reads 0.968 ± 0.015. The result for `CN1C(C)(C)CCCC1(C)C` [Pempidine tartrate] reads 0.992; that for `O=c1[nH]ccc2c(S(=O)(=O)N3CCCNCC3)cccc12` [HA 1100 hydrochloride], 0.99; that for `Cc1cc(NC(=O)Nc2ccc(N(C)C)cc2)c2cc(F)cc(F)c2n1`, 0.972. In the case of `Cc1onc(-c2c(Cl)cccc2Cl)c1C(=O)N[C@@H]1C(=O)N2[C@@H]1SC(C)(C)[C@@H]2C(=O)O` [Dicloxacillin sodium salt hydrate], the “surface PD-L1 immunofluorescence intensity” value worked out at 1.02. The result for `CC1(C)Oc2ccc(C#N)cc2[C@@H](N2CCCC2=O)[C@@H]1O` [Levcromakalim] reads 0.959; that for `CN(C)/N=N/c1[nH]cnc1C(N)=O` [Dacarbazine], 1.02. For the molecule `CC1C(=O)OC2C(O)C34C5CC(C(C)(C)C)C36C(OC(=O)C6O)OC4(C(=O)O5)C12O` (stereo not drawn) [Ginkgolide B], the “surface PD-L1 immunofluorescence intensity” value was found to be 0.978. The figure for `C[N+](C)(C)CCCCCC[N+](C)(C)C` [Hexamethonium dibromide dihydrate] is 0.85; for `CC[N+](C)(C)Cc1ccccc1Br` [Bretylium tosylate] it is 0.974. The result for `CCCCCCCCc1ccc(-c2ccc(C(=O)O)cc2)cc1` reads 1.03; that for `N#Cc1c(O)c2c(-c3ccc(-c4ccccc4O)cc3)csc2[nH]c1=O`, 1.1 and 1.06; that for `CCCCC(=O)O[C@H]1CC[C@H]2[C@@H]3CCc4cc(O)ccc4[C@H]3CC[C@]12C` [Estradiol valerate], 0.94. The result for `CCCCC(=O)O[C@H]1CC[C@H]2[C@@H]3CCc4cc(O)ccc4[C@H]3CC[C@]12C` [Estradiol Valerate] reads 1.03; that for `N=C(N)c1ccc(OCCCCCOc2ccc(C(=N)N)cc2)cc1` [Pentamidine isethionate], 1.08; that for `N=C(N)c1ccc(OCCCCCOc2ccc(C(=N)N)cc2)cc1` [Pentamidine], 1.07. As for `N=C(N)SCCc1ccc(OCc2ccc([N+](=O)[O-])cc2)cc1` [KB-R7943 mesylate], the “surface PD-L1 immunofluorescence intensity” value came to 0.936. The result for `O=c1cc(-c2cccc3c2Sc2ccccc2S3)oc(N2CCOCC2)c1` reads 0.977 and 1.05.

In the case of `Fc1ccc(C(c2ccc(F)cc2)N2CCN(C/C=C/c3ccccc3)CC2)cc1` [Flunarizine dihydrochloride], the “surface PD-L1 immunofluorescence intensity” value worked out at 1.02 ± 0.091. The result for `Oc1ccc([C@H]2COc3cc(O)ccc3C2)cc1` [Equol] reads 1.06; that for `Cc1ccc(Nc2c(F)cccc2Cl)c(CC(=O)O)c1` [Lumiracoxib (COX-189)], 1.02; that for `O=C(O)c1cc(O)c2c(c1)C(=O)c1cccc(O)c1C2=O` [Rhein (Monorhein)], 1.09. The result for `N=C(N)NC(=N)Nc1ccccc1` [1-Phenylbiguanide hydrochloride] reads 1.09. The result for `NCCNC(=O)c1ccc(Cl)cn1` [Lazabemide hydrochloride] reads 1.

On to `CN[C@@H]1[C@H](O[C@H]2[C@H](O[C@H]3[C@H](O)[C@@H](O)[C@H](N=C(N)N)[C@@H](O)[C@@H]3N=C(N)N)O[C@@H](C)[C@]2(O)C=O)O[C@@H](CO)[C@H](O)[C@H]1O` [Streptomycin sulfate], for which the “surface PD-L1 immunofluorescence intensity” value amounted to 1.02 ± 0.039. As to `OCCOCCN1CCN(C2=Nc3ccccc3Sc3ccccc32)CC1` [Quetiapine hemifumarate], the “surface PD-L1 immunofluorescence intensity” value was 1.02.

Consider `CC(C)N1Cc2cc(S(C)(=O)=O)ccc2N(CCN2CC=C(c3c[nH]c4cc(F)ccc34)CC2)S1(=O)=O`, for which the “surface PD-L1 immunofluorescence intensity” value was 1.04. For `CCC(=O)O[C@@H](O[P@](=O)(CCCCc1ccccc1)CC(=O)N1C[C@H](C2CCCCC2)C[C@H]1C(=O)O)C(C)C` [Fosinopril sodium (Monopril)], the “surface PD-L1 immunofluorescence intensity” value is 1.19. For `CCC(=O)O[C@@H](O[P@](=O)(CCCCc1ccccc1)CC(=O)N1C[C@H](C2CCCCC2)C[C@H]1C(=O)O)C(C)C` [Fosinopril], the “surface PD-L1 immunofluorescence intensity” value was 0.994. The result for `Cn1cnc2c(NCc3ccccc3)nc(NCCO)nc21` [Olomoucine] reads 0.97; that for `Cc1cc(C(=O)NOCCO)c(Nc2ccc(I)cc2F)n(C)c1=O`, 0.904; that for `CC1(C)S[C@@H]2[C@H](NC(=O)[C@H](N)c3ccc(O)cc3)C(=O)N2[C@H]1C(=O)O` [Amoxicillin], 1.02. The figure for `CC1(C)S[C@@H]2[C@H](NC(=O)[C@H](N)c3ccc(O)cc3)C(=O)N2[C@H]1C(=O)O` [Amoxicillin (Amoxycillin)] is 0.991; for `CC(=O)N(O)[C@@H]1c2cc(C#N)ccc2OC(C)(C)[C@H]1O` it is 1.03. The result for `O=C(CCc1ccc(O)cc1)c1c(O)cc(O)cc1O[C@@H]1O[C@H](CO)[C@@H](O)[C@H](O)[C@H]1O` [Phlorizin (Phloridzin)] reads 0.84; that for `Oc1ncnc2[nH]ncc12` [Allopurinol], 1.01; that for `Oc1ncnc2[nH]ncc12` [Allopurinol (Zyloprim)], 0.887. On to `CCCCCCC[N+](CC)(CC)CCCCc1ccc(Cl)cc1` [Clofilium tosylate], for which the “surface PD-L1 immunofluorescence intensity” value came out at 1.13.

Regarding `CNCCCC1c2ccccc2C=Cc2ccccc21` [Protriptyline hydrochloride], the “surface PD-L1 immunofluorescence intensity” value came out at 0.961. For `CCOC(=O)C1=C[C@@H](OC(CC)CC)[C@H](NC(C)=O)[C@@H](N)C1` [Oseltamivir phosphate (Tamiflu)], the “surface PD-L1 immunofluorescence intensity” value was 0.834. The result for `C[C@]12CCC(=O)C=C1CC[C@@H]1[C@@H]2[C@@H](O)C[C@@]2(C)[C@H]1CC[C@]2(O)C(=O)CO` [Hydrocortisone (Cortisol)] reads 0.814.

Turning to `C[C@]12CCC(=O)C=C1CC[C@@H]1[C@@H]2[C@@H](O)C[C@@]2(C)[C@H]1CC[C@]2(O)C(=O)CO` [Hydrocortisone base], the “surface PD-L1 immunofluorescence intensity” value was 0.795.

With `Cc1onc(-c2ccccc2)c1-c1ccc(S(N)(=O)=O)cc1` [Valdecoxib], the “surface PD-L1 immunofluorescence intensity” value stood at 1.01. The figure for `COc1ccc(CCN(C)CCCC(C#N)(c2ccc(OC)c(OC)c2)C(C)C)cc1OC` (stereo not drawn) [Verapamil hydrochloride] is 0.899; for `CCCc1cc(=O)[nH]c(=S)[nH]1` [Propylthiouracil] it is 1.07. As to `C[N+]1(CCCCC[N+]2(C)CCCC2)CCCC1` [Pentolinium bitartrate], the “surface PD-L1 immunofluorescence intensity” value came to 0.936. Take `O=C(Nc1ccccc1)c1cc([N+](=O)[O-])ccc1Cl`: the “surface PD-L1 immunofluorescence intensity” value was 1.03 and 1.05. For the molecule `C=C1C(=O)O[C@@H]2/C=C(\C)CC/C=C(\C)CC[C@@H]12` [Costunolide], the “surface PD-L1 immunofluorescence intensity” value was found to be 1.05. The figure for `c1ccc2c(Cc3c[nH]c4ccccc34)c[nH]c2c1` [Diindolylmethane] is 1.04; for `Cc1sc(N)c(C(=O)c2cccc(C(F)(F)F)c2)c1C` it is 0.996; for `COc1ccc(OC)c2c(=S)c3ccccc3[nH]c12` it is 1.11.

In the case of `COc1ccc(-n2[nH]c3c4c(ncc3c2=O)CCCCC4)cc1`, the “surface PD-L1 immunofluorescence intensity” value amounted to 1.01.

As for `CO/N=C(\C(=O)N[C@@H]1C(=O)N2C(C(=O)OCOC(=O)C(C)(C)C)=C(/C=C\c3scnc3C)CS[C@H]12)c1csc(N)n1` [Cefditoren pivoxil], the “surface PD-L1 immunofluorescence intensity” value amounted to 1.08. Regarding `CC(C)c1ccc(NC(=O)Cn2cnc3c2c(=O)n(C)c(=O)n3C)cc1`, the “surface PD-L1 immunofluorescence intensity” value came to 1.1. As for `Cc1c(C2CCN(CCc3ccccc3)CC2)noc1-c1ccc(Cl)cc1` [L-741,742 hydrochloride], the “surface PD-L1 immunofluorescence intensity” value was determined as 1.08. The result for `O=C(O)c1ccc(-c2ccc3cc(O)c(C45CC6CC(CC(C6)C4)C5)cc3c2)cc1` reads 1.01; that for `C[C@]12CC[C@@H]3c4ccc(O)cc4CC[C@H]3[C@@H]1CC[C@@H]2O` [Estradiol], 1.1; that for `C[C@]12CC[C@@H]3c4ccc(O)cc4CC[C@H]3[C@@H]1CC[C@@H]2O` [17b-Estradiol], 1.06. The figure for `C[C@]12CC[C@@H]3c4ccc(O)cc4CC[C@H]3[C@@H]1CC[C@@H]2O` [Estradiol-17 beta] is 0.927; for `Cc1c(NC(=O)N2CCOCC2)ccc2c1c1ccccc1n2C(C)C` it is 0.998. The result for `CCCN(CCC)S(=O)(=O)c1ccc(C(=O)O)cc1` [Probenecid] reads 0.941; that for `CC(=O)[C@H]1CC[C@H]2[C@@H]3CCC4=CC(=O)CC[C@]4(C)[C@H]3CC[C@]12C` [Progesterone (Prometrium)], 0.854. With `CC(=O)[C@H]1CC[C@H]2[C@@H]3CCC4=CC(=O)CC[C@]4(C)[C@H]3CC[C@]12C` [Progesterone], the “surface PD-L1 immunofluorescence intensity” value came out at 1.03 ± 0.037. With `OC(CN1CCC(Cc2ccc(F)cc2)CC1)c1ccc(Cl)cc1` (stereo not drawn) [Eliprodil], the “surface PD-L1 immunofluorescence intensity” value is 1.04.

On to `NC(Cc1cc(I)c(Oc2cc(I)c(O)c(I)c2)c(I)c1)C(=O)O` (stereo not drawn) [Thyroxine (L)], for which the “surface PD-L1 immunofluorescence intensity” value was found to be 0.963.

In the case of `CN(C)CC/C=C1/c2ccccc2Sc2ccc(Cl)cc21` [Chlorprothixene hydrochloride], the “surface PD-L1 immunofluorescence intensity” value was determined as 1.15. The figure for `COc1ccc2[nH]c([S+]([O-])Cc3ncc(C)c(OC)c3C)nc2n1` (stereo not drawn) [Tenatoprazole] is 1.02. The result for `CN(C)CCOC(c1ccccc1)c1ccccc1` [Diphenhydramine hydrochloride] reads 0.866; that for `Nc1cccc2c1C(=O)N(C1CCC(=O)NC1=O)C2=O` (stereo not drawn) [Pomalidomide], 1.01; that for `Oc1ccc(OC2CCCCO2)cc1` (stereo not drawn) [Deoxyarbutin], 1.11.
